{
  "source": "patent US20250085273A1",
  "about": "“NOVEL RAPID DRUG DISCOVERY FOR SEPSIS AND AGENTS FOR USE AS SEPSIS THERAPY” (priority 2023, published 2025)",
  "tested_on": "5-dpf zebrafish challenged with P. aeruginosa LPS 60 μg/mL",
  "assay": "Concentration range find test (therapeutic window), 5-dpf zebrafish, P. aeruginosa LPS",
  "type": "in vivo, Danio rerio",
  "settings": "drug concentrations as low as 0.01 μM",
  "note": "Some of these results come from one statement about several compounds together.",
  "data": [
    {"compound": "O=C(c1ccc(F)cc1)C1CCN(CCn2c(=O)[nH]c3ccccc3c2=O)CC1", "note": "[Compound 88, Ketanserin]", "values": [
      {"measurement": "rescue in drug efficacy dose range response", "result": "> 60", "unit": "%"}
    ]}
  ]
}
